In publication PMC3760629:
Results are given in words; binding and its absence hold for the method and conditions named. Binding seen in cells or lysates may run through a third protein. Some entries that bind do so weakly or less than the wild type.

Amino acid sequences for entries named in this document (tags omitted).
UniProt Q9UKV8: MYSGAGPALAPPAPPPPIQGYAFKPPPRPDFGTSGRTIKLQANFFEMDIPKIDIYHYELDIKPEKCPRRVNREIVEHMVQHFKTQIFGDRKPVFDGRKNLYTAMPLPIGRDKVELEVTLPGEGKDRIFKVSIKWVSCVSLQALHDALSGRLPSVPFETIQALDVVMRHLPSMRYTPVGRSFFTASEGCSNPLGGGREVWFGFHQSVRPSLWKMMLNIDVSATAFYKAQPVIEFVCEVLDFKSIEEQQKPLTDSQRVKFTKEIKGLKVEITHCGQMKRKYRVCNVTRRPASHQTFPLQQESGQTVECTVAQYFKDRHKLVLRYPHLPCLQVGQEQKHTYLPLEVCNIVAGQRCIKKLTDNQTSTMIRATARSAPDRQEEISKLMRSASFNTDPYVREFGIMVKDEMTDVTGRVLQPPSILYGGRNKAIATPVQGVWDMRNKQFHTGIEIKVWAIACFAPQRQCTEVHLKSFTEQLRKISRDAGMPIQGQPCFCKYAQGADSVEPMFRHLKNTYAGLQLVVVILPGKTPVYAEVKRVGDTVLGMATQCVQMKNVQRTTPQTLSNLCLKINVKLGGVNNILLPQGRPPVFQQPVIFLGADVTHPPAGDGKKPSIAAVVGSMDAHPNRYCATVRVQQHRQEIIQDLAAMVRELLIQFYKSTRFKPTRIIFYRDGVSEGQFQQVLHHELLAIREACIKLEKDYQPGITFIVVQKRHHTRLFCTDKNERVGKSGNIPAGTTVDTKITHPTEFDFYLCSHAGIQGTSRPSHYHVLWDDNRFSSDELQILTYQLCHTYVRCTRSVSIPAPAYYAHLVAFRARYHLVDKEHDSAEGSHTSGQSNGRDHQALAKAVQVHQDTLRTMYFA
UniProt Q8NDV7: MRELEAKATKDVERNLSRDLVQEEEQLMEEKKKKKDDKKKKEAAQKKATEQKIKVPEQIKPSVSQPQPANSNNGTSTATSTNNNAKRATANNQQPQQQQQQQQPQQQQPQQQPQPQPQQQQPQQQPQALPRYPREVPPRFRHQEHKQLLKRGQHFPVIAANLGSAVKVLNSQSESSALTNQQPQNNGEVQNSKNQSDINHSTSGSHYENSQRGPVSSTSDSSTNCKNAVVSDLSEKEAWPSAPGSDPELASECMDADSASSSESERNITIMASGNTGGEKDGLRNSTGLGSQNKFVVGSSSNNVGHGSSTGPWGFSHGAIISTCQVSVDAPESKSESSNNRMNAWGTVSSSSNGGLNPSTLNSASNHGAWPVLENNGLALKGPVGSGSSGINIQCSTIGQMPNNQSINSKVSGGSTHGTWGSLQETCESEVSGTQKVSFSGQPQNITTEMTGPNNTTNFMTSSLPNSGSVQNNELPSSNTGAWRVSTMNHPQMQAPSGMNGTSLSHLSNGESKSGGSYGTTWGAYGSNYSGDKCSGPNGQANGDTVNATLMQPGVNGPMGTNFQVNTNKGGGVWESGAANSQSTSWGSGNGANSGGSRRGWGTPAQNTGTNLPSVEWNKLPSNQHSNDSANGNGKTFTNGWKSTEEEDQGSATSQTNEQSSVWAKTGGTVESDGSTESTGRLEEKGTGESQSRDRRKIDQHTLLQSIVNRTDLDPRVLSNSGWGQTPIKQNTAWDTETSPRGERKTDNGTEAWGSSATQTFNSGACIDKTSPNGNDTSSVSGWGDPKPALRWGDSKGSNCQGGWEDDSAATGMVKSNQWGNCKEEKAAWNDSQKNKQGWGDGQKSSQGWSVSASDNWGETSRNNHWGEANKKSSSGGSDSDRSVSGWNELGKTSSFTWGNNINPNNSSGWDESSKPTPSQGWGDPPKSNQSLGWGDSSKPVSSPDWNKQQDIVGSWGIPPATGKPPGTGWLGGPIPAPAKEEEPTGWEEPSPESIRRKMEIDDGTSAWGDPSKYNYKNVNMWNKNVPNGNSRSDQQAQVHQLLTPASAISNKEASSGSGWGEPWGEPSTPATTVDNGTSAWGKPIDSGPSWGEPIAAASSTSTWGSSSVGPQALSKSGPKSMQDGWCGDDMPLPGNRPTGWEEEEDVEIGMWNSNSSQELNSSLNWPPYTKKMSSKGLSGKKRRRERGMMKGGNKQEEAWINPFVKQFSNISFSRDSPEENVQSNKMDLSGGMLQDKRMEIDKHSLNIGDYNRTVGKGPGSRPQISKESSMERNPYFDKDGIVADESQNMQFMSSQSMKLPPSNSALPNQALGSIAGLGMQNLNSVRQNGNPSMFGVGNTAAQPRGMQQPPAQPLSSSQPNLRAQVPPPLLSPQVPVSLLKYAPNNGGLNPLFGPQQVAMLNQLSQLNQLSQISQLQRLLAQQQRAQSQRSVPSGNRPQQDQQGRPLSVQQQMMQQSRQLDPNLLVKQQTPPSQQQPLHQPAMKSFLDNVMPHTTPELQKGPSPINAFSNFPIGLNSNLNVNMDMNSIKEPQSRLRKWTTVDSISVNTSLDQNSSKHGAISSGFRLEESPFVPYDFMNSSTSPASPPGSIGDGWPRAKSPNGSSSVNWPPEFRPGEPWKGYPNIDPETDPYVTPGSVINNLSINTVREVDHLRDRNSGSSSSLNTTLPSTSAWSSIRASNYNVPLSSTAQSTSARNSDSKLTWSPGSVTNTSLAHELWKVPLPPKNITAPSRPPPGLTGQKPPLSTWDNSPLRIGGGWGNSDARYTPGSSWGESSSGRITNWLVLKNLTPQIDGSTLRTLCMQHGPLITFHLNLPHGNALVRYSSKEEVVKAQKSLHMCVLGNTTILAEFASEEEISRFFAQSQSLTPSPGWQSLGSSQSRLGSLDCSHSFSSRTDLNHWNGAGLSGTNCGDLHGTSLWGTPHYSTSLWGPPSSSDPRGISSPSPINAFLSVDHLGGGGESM

Target: Argonaute2 (human (endogenous in human plasma)) (UniProt Q9UKV8)
Assay: co-IP; antibodies directed toward Ago2 and GW182 used to immunoprecipitate the proteins from human plasma; western analysis

- binding: binds
Substance: GW182 (from UniProt Q8NDV7 1-1962)
